Results deposited as PubChem BioAssay AID652259 (Drosophila RNAi Screening Center, 2013).

Aim: 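Genome-wide hunt for genes that control Wingless pathway activity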 (primary screen)
System: Drosophila clone 8 imaginal disc epithelial cells
Reagent: long dsRNA against Drosophila genes
Challenge: pathway stimulated by co-transfected Wingless expression plasmid
Read-out: 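Firefly luciferase from a tcf-site Wingless reporter, measured alongside co-transfected Renilla luciferase that tracks transfection; pathway stimulated by a Wingless plasmid; the firefly-to-Renilla ratio is not deposited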
Scale: firefly reporter light: higher = more Wg reporter light, before normalisation; Renilla control light: higher = more transfected or surviving cells
Call rule: 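Strong candidates differ from their plate mean by at least two out of four per-plate statistical tests; weak candidates meet just one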
Meaning of the calls: active = candidate regulator (raises or lowers reporter); inactive = not a candidate
The deposit covers about 22,000 reagents; below is an unselected part of those with a known target gene and a result. In the full data, 233 (1.1%) are marked active. 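Light values are raw, unnormalised plate reads; the ratio scores behind the reporter calls were not deposited.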 Reagents against one gene are numbered here. Names joined by + are all predicted targets of the reagent. The record does not give: the amount of reagent, the time to read-out, the dose of the treatment.

| target | reagent no. | reporter change call, replicate 1 | firefly reporter light, replicate 1 | firefly reporter light, replicate 2 | Renilla control light, replicate 1 | Renilla control light, replicate 2 | call |
| --- | --- | --- | --- | --- | --- | --- | --- |
| CR31292 | 1 | – | 4418 | – | 1501 | – | inactive |
| TMEM216 | 1 | – | 15784 | – | 4533 | – | inactive |
| Ir56d | 1 | – | 6528 | – | 2250 | – | inactive |
| Duba | 1 | – | 5203 | – | 2085 | – | inactive |
| Brd8 | 1 | – | 2887 | 7156 | 636 | 2608 | inactive |
| Ank2 | 1 | – | 3763 | – | 1339 | – | inactive |
| Ank2 | 2 | – | 1399 | 9085 | 1184 | 3435 | inactive |
| Ank2 | 3 | – | 1533 | 7098 | 887 | 2931 | inactive |
| Ank2 | 4 | – | 1072 | 8384 | 929 | 2388 | inactive |
| Ank2 | 5 | – | 6.67e5 | 6.06e5 | 2.86e5 | 93572 | inactive |
| RpS15Ab + RpS15Aa | 1 | – | 1987 | 4646 | 577 | 1996 | inactive |
| RpS15Ab + RpS15Aa | 2 | – | 8664 | – | 5813 | – | inactive |
| Tsp74F | 1 | – | 8843 | – | 3760 | – | inactive |
| p120ctn | 1 | – | 4576 | – | 2272 | – | inactive |
| Cpr66D | 1 | – | 1939 | 6296 | 470 | 1192 | inactive |
| Cpr66D | 2 | Wg reporter activity raised | 11312 | 1834 | 1622 | 793 | inactive |
| repo | 1 | – | 11044 | – | 1205 | – | inactive |
| Gld2 | 1 | – | 30441 | – | 3459 | – | inactive |
| CG3092 | 1 | – | 9206 | – | 3009 | – | inactive |
| Edg84A | 1 | – | 7197 | – | 1856 | – | inactive |
| Grip128 | 1 | – | 2864 | 7320 | 1012 | 2544 | inactive |
| haf | 1 | – | 1511 | 6970 | 669 | 2102 | inactive |
| eIF3c | 1 | – | 3058 | – | 1376 | – | inactive |
| CG5011 | 1 | – | 13721 | – | 6544 | – | inactive |
| CG12986 | 1 | – | 18906 | – | 10820 | – | inactive |
| CycG | 1 | – | 2246 | 5993 | 947 | 2075 | inactive |
| CG11584 | 1 | – | 25124 | – | 11648 | – | inactive |
| CG17036 | 1 | – | 2889 | 7453 | 1571 | 3736 | inactive |
| CG13218 | 1 | – | 5445 | – | 2533 | – | inactive |

Individual results from above.
Entry for CR31292 under “call”: inactive
Under “call”, haf shows inactive
Under “Renilla control light, replicate 1”, Edg84A reads 1856
